## Primary screen of a compound library

The chains behind the UniProt entries cited, without tags or fusion partners. Residues count along the entry.
UniProt P9WPC5, whole entry: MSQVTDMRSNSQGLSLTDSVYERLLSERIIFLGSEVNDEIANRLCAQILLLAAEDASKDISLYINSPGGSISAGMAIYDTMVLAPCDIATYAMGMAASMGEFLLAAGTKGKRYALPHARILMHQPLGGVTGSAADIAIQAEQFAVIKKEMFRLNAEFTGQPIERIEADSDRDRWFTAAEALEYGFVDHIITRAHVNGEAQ
UniProt P9WPC3, whole entry partner: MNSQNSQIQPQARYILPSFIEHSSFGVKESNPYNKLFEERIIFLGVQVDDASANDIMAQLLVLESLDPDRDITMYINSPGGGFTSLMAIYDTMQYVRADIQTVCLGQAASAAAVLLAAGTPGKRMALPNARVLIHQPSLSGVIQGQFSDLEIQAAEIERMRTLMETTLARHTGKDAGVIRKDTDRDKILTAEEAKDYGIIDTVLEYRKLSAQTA
UniProt P9WFT3, whole entry: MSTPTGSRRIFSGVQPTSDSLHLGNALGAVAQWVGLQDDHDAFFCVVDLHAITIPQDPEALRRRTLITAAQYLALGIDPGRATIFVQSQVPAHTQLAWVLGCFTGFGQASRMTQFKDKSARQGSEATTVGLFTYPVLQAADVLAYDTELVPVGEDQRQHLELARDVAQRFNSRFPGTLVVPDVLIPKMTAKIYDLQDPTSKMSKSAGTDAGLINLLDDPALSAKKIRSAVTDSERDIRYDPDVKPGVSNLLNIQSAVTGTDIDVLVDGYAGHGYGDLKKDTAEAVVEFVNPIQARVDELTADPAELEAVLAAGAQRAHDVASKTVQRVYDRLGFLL
UniProt I6X8D2, whole entry: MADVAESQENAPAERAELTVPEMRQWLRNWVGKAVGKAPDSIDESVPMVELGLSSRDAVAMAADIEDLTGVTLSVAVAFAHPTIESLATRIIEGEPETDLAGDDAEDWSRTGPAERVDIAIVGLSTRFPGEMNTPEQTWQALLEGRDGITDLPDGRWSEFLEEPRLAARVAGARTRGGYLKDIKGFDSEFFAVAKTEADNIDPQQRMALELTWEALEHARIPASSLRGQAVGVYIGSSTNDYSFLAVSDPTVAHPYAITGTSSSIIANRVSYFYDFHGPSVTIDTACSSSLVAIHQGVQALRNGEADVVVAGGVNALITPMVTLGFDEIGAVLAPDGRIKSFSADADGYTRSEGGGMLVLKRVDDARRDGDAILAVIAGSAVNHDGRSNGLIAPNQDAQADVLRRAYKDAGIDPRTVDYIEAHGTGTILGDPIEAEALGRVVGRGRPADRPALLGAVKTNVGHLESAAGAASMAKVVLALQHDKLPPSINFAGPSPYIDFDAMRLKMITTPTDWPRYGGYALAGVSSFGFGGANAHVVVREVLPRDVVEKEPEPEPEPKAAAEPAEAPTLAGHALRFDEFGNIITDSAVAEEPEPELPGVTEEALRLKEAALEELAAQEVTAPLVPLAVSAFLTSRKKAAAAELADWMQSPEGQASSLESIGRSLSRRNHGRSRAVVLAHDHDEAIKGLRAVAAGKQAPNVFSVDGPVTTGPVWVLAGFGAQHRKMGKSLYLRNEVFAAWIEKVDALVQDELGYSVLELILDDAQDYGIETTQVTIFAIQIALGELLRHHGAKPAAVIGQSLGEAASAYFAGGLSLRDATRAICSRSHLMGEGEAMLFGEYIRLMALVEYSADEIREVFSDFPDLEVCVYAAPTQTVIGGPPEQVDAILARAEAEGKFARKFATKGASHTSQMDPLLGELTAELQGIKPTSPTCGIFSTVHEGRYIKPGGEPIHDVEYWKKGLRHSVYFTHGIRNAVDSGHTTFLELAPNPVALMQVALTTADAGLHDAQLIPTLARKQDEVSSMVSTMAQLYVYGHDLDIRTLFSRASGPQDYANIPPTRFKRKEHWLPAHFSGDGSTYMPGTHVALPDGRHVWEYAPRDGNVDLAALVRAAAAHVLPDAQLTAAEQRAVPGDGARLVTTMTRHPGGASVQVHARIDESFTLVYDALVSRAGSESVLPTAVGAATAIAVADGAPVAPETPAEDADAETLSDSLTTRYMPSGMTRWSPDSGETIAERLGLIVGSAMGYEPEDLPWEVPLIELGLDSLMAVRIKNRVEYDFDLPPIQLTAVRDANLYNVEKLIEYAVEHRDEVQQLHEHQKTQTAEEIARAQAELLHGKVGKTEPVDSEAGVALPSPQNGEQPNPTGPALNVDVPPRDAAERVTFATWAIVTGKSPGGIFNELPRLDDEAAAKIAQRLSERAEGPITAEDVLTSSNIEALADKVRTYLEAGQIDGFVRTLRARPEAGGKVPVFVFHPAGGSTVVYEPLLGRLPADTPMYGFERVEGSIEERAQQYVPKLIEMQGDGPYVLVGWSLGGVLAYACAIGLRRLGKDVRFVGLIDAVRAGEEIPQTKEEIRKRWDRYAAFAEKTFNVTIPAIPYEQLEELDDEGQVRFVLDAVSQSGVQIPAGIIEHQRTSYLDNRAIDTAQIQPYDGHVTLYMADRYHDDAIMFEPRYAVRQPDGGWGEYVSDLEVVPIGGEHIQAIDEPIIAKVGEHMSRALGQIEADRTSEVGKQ
UniProt Q8IDJ8, 1-583: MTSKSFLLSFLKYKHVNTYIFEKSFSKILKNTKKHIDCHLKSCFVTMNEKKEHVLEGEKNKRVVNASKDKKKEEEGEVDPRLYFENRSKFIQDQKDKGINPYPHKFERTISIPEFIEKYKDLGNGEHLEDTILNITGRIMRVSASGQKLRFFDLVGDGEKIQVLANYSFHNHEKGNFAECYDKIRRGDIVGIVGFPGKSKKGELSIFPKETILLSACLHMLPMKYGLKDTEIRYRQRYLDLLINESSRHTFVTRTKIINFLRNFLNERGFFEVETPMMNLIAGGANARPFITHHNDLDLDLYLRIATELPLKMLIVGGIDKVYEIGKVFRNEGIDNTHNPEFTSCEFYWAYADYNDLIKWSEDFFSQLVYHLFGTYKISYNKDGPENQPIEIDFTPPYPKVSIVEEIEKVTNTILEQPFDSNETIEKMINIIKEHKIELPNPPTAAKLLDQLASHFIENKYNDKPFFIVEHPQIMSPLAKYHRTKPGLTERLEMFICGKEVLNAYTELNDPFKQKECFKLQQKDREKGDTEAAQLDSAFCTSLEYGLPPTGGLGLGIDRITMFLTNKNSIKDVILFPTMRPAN

Data taken from ChEMBL document CHEMBL3988442, “University of Dundee, Small-Polar-MMV Screening Library” (2021).

ClpP1P2: 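Protease assay of ClpP1P2, read by the AMC dye that it sets free. Target: ClpP1P2, Mycobacterium tuberculosis (UniProt P9WPC5 and UniProt P9WPC3). Tested at 50 µM. Higher reads as stronger inhibition, judged from the few compounds that gave an IC50. Most other retested compounds had strongly negative values. About 69,000 compounds were tested under these conditions; 0.015% (about 10) showed 50% or more at least once.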
MtTrpRS: 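Enzyme assay of tryptophanyl-tRNA synthetase; the read-out is not stated. Target: Tryptophan-tRNA ligase, Mycobacterium tuberculosis (UniProt P9WFT3). Tested at 10 µM. Direction is not recorded; retested compounds ran higher, which suggests that high means inhibition. Of about 65,000 compounds tested this way, about 64 (0.098%) reached 50% or more in at least one test.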
Pks13 thioesterase: 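Polyketide synthase Pks13, Mycobacterium tuberculosis (UniProt I6X8D2). Enzyme assay of the thioesterase domain of polyketide synthase 13; the read-out is not stated. Concentration: 30 µM. Higher reads as stronger inhibition (inferred from which compounds were picked for retests). Size under these conditions: about 67,000 compounds, about 300 of them at 50% or above in at least one test.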
PfKRS1: 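Enzyme assay of the cytosolic lysyl-tRNA synthetase in 384-well plates, read by luminescence. Target: Lysine-tRNA ligase, Plasmodium falciparum 3D7 (UniProt Q8IDJ8). Concentration: 30 µM. Higher reads as stronger inhibition, judged from the few compounds that gave an IC50. About 69,000 compounds were tested under these conditions; 0.071% (about 49) showed 50% or more at least once.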

Values are the deposited “Percent Effect”, in %.
The controls that fix the scale are not given in the record; negative values are as filed.
The compounds are a random part of those screened.
A dash means the value is not listed here; it may have been measured.

| SMILES | ClpP1P2 | MtTrpRS | Pks13 thioesterase | PfKRS1 |
|---|---|---|---|---|
| `Oc1ccccc1CN1CCC(n2cc(-c3ccc(F)cc3)nn2)CC1` | -5.825% | 5.047% | 2.046% | 6.714% |
| `CN(C)C(=O)N1CCC(C(=O)N2CCOC(CC3CCCCC3)C2)CC1` (stereo not drawn) | -12.12% | 1.817% | 5.732% | 2.351% |
| `CCc1ncc(C(=O)N2CCCOC(Cn3cccn3)C2)cn1` (stereo not drawn) | -2.951% | 3.995% | -13.9% | 2.281% |
| `CC(NC(=O)C1CCCC1)c1nc(-c2ccccc2)c[nH]1` (stereo not drawn) | 7.268% | -11.24% | -24.34% | 3.1% |
| `Cc1nc(CC(=O)N2CCC3(CC2)CC(=O)N(CC2CCCO2)C3)cs1` (stereo not drawn) | 6.799% | 0.764% | 7.761% | 1.517% |
| `COc1ccc(C(=O)C2CCCN(c3nccc(N)n3)C2)c(C)c1` (stereo not drawn) | -1.885% | -1.89% | -29.35% | 7.364% |
| `CCCc1cc(=O)[nH]c(-n2nc(C3CC3)cc2N)n1` | -0.4367% | -0.5882% | 0.9304% | 1.475% |
| `CC(=O)NCCC(=O)NCc1cc(Br)ccc1OC(F)F` | 5.968% | 5.576% | -5.285% | 3.705% |
| `COc1ccc(C(=O)N2CCCCC2c2ccccn2)c(OC)n1` (stereo not drawn) | -16.29% | -0.7417% | -16.09% | 0.8523% |
| `O=C(c1cncc(N2CCC3(CCNCC3)CC2)n1)N1CCCC1` | -32.35% | 4.44% | -8.14% | -2.759% |
| `O=C(c1cccs1)N1CCC2(CC1)CN(c1cncnc1)C(=O)CO2` | -3.713% | -2.658% | -12.14% | 0.627% |
| `CC(C)(C)c1nnc(CN2CCOC(Cn3cncn3)C2)o1` (stereo not drawn) | 3.14% | 4.529% | -13.52% | 2.391% |
| `O=C(Nc1cccc(F)c1)C1CCN(Cc2noc(C3CC3)n2)CC1` | 2.52% | -1.636% | -34.68% | 8.834% |
| `CC1(C)CN(CC(F)(F)F)CCN1CC(N)=O` | -5.913% | 3.086% | -11.69% | 4.656% |
| `Cc1nc(CN(C)C(=O)Nc2cnn(CC3CCCO3)c2)cs1` (stereo not drawn) | -11.46% | 1.161% | -4.47% | -0.7632% |
| `CCS(=O)(=O)c1ccc(N2CCC(NC(=O)c3ccccn3)CC2)cc1` | -6.47% | -1.251% | -14.69% | -1.344% |
| `COc1cc(CN2CC(=O)N(c3ccc(C)cc3)CC2C)cc(OC)c1` (stereo not drawn) | -9.861% | -0.2469% | -7.64% | 1.961% |
| `CC(C)N(CCNC(=O)c1ccc(S(=O)(=O)NC2CC2)cc1)C(C)C` | 2.709% | -0.698% | -5.238% | 3.159% |
| `O=C(CCc1ccncc1)N1CCc2cc(Cl)cc(Cl)c2C1` | -17.96% | 3.551% | -3.811% | 4.38% |
| `COCCOCCC(=O)N1CCC(c2ccccc2C)C1` (stereo not drawn) | -0.9506% | -3.42% | -19.92% | 4.18% |
| `O=C(CCn1cccn1)N1CCC(C2CCN(c3ncccn3)CC2)C1` (stereo not drawn) | -2.45% | 3.715% | -40.84% | 0.7703% |
| `CN(Cc1ccncc1)C(=O)Nc1cnn(CC2CCCO2)c1` (stereo not drawn) | 7.237% | -5.96% | -10.06% | -0.3006% |
| `N#CC1COCCN1C(=O)c1ccc2cc[nH]c2c1` (stereo not drawn) | 1.469% | 3.331% | -7.227% | 0.5325% |
| `Cc1ccc(CN(C)Cc2nc3c(cnn3C)c(=O)[nH]2)o1` | -19.81% | -2.803% | 18.6% | 0.05615% |
| `O=C(Cc1cccnc1)NCCSc1ccccc1F` | -3.043% | -1.899% | -16.71% | 6.791% |
| `CC(C)(C(=O)NCCS(N)(=O)=O)c1cccc(Br)c1` | -7.366% | -0.07788% | -34.85% | 10.42% |
| `Cc1csc(C(=O)N2CCC(S(C)(=O)=O)C2)c1` (stereo not drawn) | -0.3201% | -0.8043% | -11.14% | 6.984% |
| `CN1CCC2(CC1)C(=O)N(C)c1ccc(F)cc12` | 4.911% | -8.095% | 2.31% | 0.1906% |
| `CC(=O)c1cnc(NCCN2CCCC2)nc1C` | 11.72% | -3.785% | -2.738% | -0.355% |
| `CC(C)=CCN1CC2(CCN(Cc3cccc(C#N)c3)CC2)CC1=O` | -2.568% | -0.9183% | -15.59% | -1.374% |
| `CCN(C)S(=O)(=O)NC(C)c1cnc(N(C)C2CCCCC2)nc1C` (stereo not drawn) | 3.774% | -1.784% | -24.82% | 2.263% |
| `CCc1nnc(CSc2ccccn2)o1` | 1.921% | -6.762% | -10.94% | 1.571% |
| `NC(=O)CN(C(=O)Cc1ccc(C(F)(F)F)cc1)C1CCCC1` | 7.806% | -1.763% | 6.182% | 3.56% |
| `Cc1cc(C(=O)N2CCc3nc(N4CCOCC4)nc(C)c3C2)c(C)o1` | -3.476% | - | -12% | 2.587% |
| `CN1C(=O)CC(c2ccccc2)C12CCN(CCO)CC2` (stereo not drawn) | -2.328% | -9.012% | -6.354% | 5.082% |
| `CCn1cc(NC(=O)C2CCN(CC(=O)N3CCOCC3)CC2)cn1` | 2.03% | -0.09747% | -6.722% | 0.7899% |
| `Cc1ccc(-c2cccc(-c3ccn(CCN4CCCC4)n3)c2)nn1` | -19.44% | -3.947% | -12.41% | -1.85% |
| `O=C(c1ccccc1)N1CCC[C@]2(C[C@@H](OCc3ccncc3)CO2)C1` | -18.25% | -2.509% | -1.919% | 5% |
| `CCNc1ncc(C(=O)N2CCOC(CCCC(C)C)C2)cn1` (stereo not drawn) | -0.9583% | 2.437% | -166.8% | 1.203% |
| `C=C(C)COc1ccccc1C(=O)NCCc1cc(O)nc(C)n1` | 7.086% | -0.6101% | -6.936% | 5.744% |
| `OCCN1CCCC(c2nccnc2Oc2ccccc2)C1` (stereo not drawn) | 2.353% | - | -11.87% | 0.2814% |
| `CC(C)c1nc(CN(C)C2CCN(CC(F)(F)F)C2)no1` (stereo not drawn) | -4.791% | -0.6415% | -13.3% | -0.6839% |
| `Cc1nc(-c2cccs2)ccc1C(=O)N1CCN(CC(C)O)CC1` (stereo not drawn) | 0.1336% | -6.757% | -5.718% | 6.412% |
| `Cc1cnc(CC2COCCN(C(=O)c3cncnc3)C2)cn1` (stereo not drawn) | 6.584% | -6.802% | 1.793% | 0.6294% |
| `COc1cnc(N2CCCN(c3ccc(F)cc3)CC2)nc1` | 5.881% | -2.564% | 6.502% | 1.944% |
| `CCCn1cnnc1CNC(=O)C1COc2c(cccc2OC)C1` (stereo not drawn) | -1.978% | -0.6192% | -13.95% | 0.1491% |